Results deposited as PubChem BioAssay AID1259405 (NCATS, 2018)
Shown is an unselected part of about 50,000 reagents tested. Of all reagents, about 4,000 (8%) were called active. 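Mouse siRNA library applied to hamster cells; one well for each siRNA.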 Entries without a mark were called inactive. Reagents against one gene are numbered here.

Screen: 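Mouse-designed siRNAs used to find CHO productivity engineering targets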 (primary screen)
Cell system: Chinese hamster CHO-K1 ovary cells with stable secreted eGFP expression
Knock-down reagent: single siRNA against mouse genes, 0.8 pmol siRNA per well (2 µl of 400 nM stock)
Time to read-out: 3 days
Measured: 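Percent of the per-plate non-targeting control median for intracellular GFP per well by laser scanning cytometry and for cell viability by ATP luminescence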
Scale: GFP, % of control: higher = more GFP per well, higher productivity; viability (ATP), % of control: higher = more viable cells (more ATP)
Active means: 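a knock-down is called active if GFP reaches 120% or more of non-targeting control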

The opening 11 records as a preview:
gene,siRNA no.,"GFP, % of control","viability (ATP), % of control"
Cd46,1,50.1,85.3
Cd46,2,43,64.9
Cd46,3,52.3,60.1
Sp3os,1,109,88.1
Sp3os,2,39.3,49.2
Sp3os,3,135 (active),70.1
Usp28,1,77.3,105
Usp28,2,51.5,43.4
Usp28,3,62.5,58.7
Gm5458,1,99.6,105
Gm5458,2,84.1,67.3

Main list, from the start:
gene,siRNA no.,"GFP, % of control","viability (ATP), % of control"
Cd46,1,50.1,85.3
Cd46,2,43,64.9
Cd46,3,52.3,60.1
Sp3os,1,109,88.1
Sp3os,2,39.3,49.2
Sp3os,3,135 (active),70.1
Usp28,1,77.3,105
Usp28,2,51.5,43.4
Usp28,3,62.5,58.7
Gm5458,1,99.6,105
Gm5458,2,84.1,67.3
Gm5458,3,33.9,61
Paqr6,1,76,89.8
Paqr6,2,102,69
Paqr6,3,65.1,91.8
Sntb1,1,49.7,87.9
Sntb1,2,107,70.2
Fem1c,1,78.3,80.5
Fem1c,2,42.1,48.8
Fem1c,3,93.3,76.9
Drc5,1,106,71.9
Drc5,2,102,90.1
Drc5,3,134 (active),119
Or5p56,1,54.5,61.1
Or5p56,2,81.6,80.2
Or5p56,3,28,32.9
Tas2r143,1,99.3,61.9
Tas2r143,2,92.1,75.5
Tas2r143,3,37.8,33.6
Galk1,1,76.8,54.4
Or51s1,1,33.1,42
Or51s1,2,83.9,101
Or51s1,3,62.2,61.6
Ooep,1,106,84.2
Ooep,2,69.1,50.5
Ooep,3,97.2,80.5
Galns,1,73.6,60.7
Galns,2,73.8,76.1
Galns,3,97.9,76.1
Ankrd23,1,73.6,51.5
Ankrd23,2,61.9,59.4
Ankrd23,3,106,82.9
Ak1,1,62.2,77.4
Chid1,1,103,67.6
Chid1,2,91.7,79.8
Chid1,3,114,102
Lactb,1,92.2,91.6
Lactb,2,96.3,94.7
Lactb,3,58.3,66.2
Phf20l1,1,80.2,67
Phf20l1,2,125 (active),94.3
Vmn1r78,1,145 (active),99.5
Vmn1r78,2,66.4,67.6
Vmn1r78,3,61.2,48.3
Unc13a,1,47.9,97.9
Unc13a,2,99.4,112
Unc13a,3,102,90.7
Pin1,1,91.4,126
Pin1,2,108,94.4
Pin1,3,81.7,84
Cavin3,1,69.1,84.3
Cavin3,2,70.2,63
Cavin3,3,80,94.6
Marcksl1,1,142 (active),89.4
Marcksl1,2,124 (active),68.4
Marcksl1,3,31,35.9
Adck5,1,74.2,82.5
Adck5,2,74.8,72
Adck5,3,103,142
2810025M15Rik,1,58.9,34
2810025M15Rik,2,94.2,92.9
2810025M15Rik,3,73.7,58.7
Chga,1,195 (active),80
Chga,2,90.9,95
Sntg1,1,59.2,68.2
Sntg1,2,63.2,66.1
Hsp90ab1,1,55,78.3
Hsp90ab1,2,85.4,73.3
Hsp90ab1,3,71.6,85
Or51f23b,1,68.8,66.4
Or51f23b,2,84.3,49.8
Or51f23b,3,63.1,83.8
Or1j11,1,134 (active),70.4
Or1j11,2,139 (active),84
Or1j11,3,36.5,86.7
Lce1c,1,87.7,96.6
Lce1c,2,94.2,91.8
Lce1c,3,109,80.6
Psmb9,1,77.7,76.3
Psmb9,2,55.8,53.9
Psmb9,3,41.6,60.9
Necap1,1,85.2,89.1
Necap1,2,75.2,73.2
Necap1,3,129 (active),58.2
Bhlhb9,1,10.8,21.2
Bhlhb9,2,81.4,78.8
Bhlhb9,3,67.9,58.9
Prune1,1,117,47.1
Prune1,2,32.5,16.8
Prune1,3,70.6,73
Or10j27,1,78.8,73.8
Or10j27,2,86.6,85.9
Or10j27,3,121 (active),46.9
Chst15,1,96.2,41.6
Chst15,2,84.2,87.2
Chst15,3,61.1,53.2
Slco2b1,1,66.9,59.5
Slco2b1,2,49.4,65.3
Slco2b1,3,70.9,74.2
